The results in this text go back to the supplement of paper PMC8256030.

Values joined by “and” are separate entries in the source; they are usually repeats but may differ in a detail not shown here. Equal entries are not always repeated. This is one part of the list. Repeats in this data set agree poorly, so a single value says little.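 HEK293T cells were given each compound shortly before transfection with a reporter in which red mCherry is followed by the SARS-CoV-2 frameshift element and then GFP in the −1 frame, so GFP appears only after frameshifting.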

Test [1] relates to SARS-CoV-2 -1 PRF reporter mCherry-FSE-GFP(-1). Nature of the test: mCherry (red) intensity as percent of control; higher = higher upstream reporter expression. To be noted: 10 µM; 24 h; HEK293T.
The test system is the same in test [2]. Nature of the test: percent effect, decrease of GFP/mCherry ratio (-1 PRF reporter) relative to controls; higher = stronger frameshift inhibition. Particulars: 10 µM; 24 h; HEK293T.

`NCCCC[C@H](NC(=O)[C@@H]1CCCN1C(=O)[C@@H]1CSSC[C@H](NC(=O)CNC(=O)CNC(=O)CN)C(=O)N[C@@H](Cc2ccc(O)cc2)C(=O)N[C@@H](Cc2ccccc2)C(=O)N[C@@H](CCC(N)=O)C(=O)N[C@@H](CC(N)=O)C(=O)N1)C(=O)NCC(N)=O` [terlipressin] returned a mCherry in test [1] of 107%. For the same compound, the percent effect in test [2] was -3.77%.
For `Cc1cc(=O)oc2cc(OS(=O)(=O)O)c(OS(=O)(=O)O)cc12` [sulmarin], in that order: 57.3% and 1.48%.
For `COc1cc(-c2ccc(=O)[nH]n2)ccc1OC(F)F` [zardaverine] the same measures were 103% and 5.19%.
For `CC1(C)S[C@@H]2[C@H](NC(=O)[C@H](N)c3ccc(O)cc3)C(=O)N2[C@H]1C(=O)O`, in that order: 90% and 2.27%.
Compound `O=C(C[S+]([O-])Cc1ccco1)NC/C=C\COc1cc(CN2CCCCC2)ccn1` (stereo unspecified) [lafutidine] returned a mCherry in test [1] of 95.5%. Further, the percent effect in test [2] is -1.81%.
For `Oc1cccc(O)c1` the same measures were 110% and -10.1%.
Turning to `NCCCC(O)(P(=O)(O)O)P(=O)(O)O` [Alendronate], the mCherry in test [1] was found to be 60.4%. In addition, the percent effect in test [2] was -8.26%.
For `CS(=O)(=O)c1ccc([C@@H](O)[C@@H](CF)NC(=O)C(Cl)Cl)cc1` [florfenicol], in that order: 88.7% and -1.24%.
Take `CC(C)(C)NCC(O)c1cc(O)cc(O)c1` (stereo unspecified) [terbutaline]: the mCherry in test [1] worked out at 114%. The percent effect in test [2] was -5.61%.
For `CC[C@H]1OC(=O)[C@H](C)[C@@H](O[C@H]2C[C@@](C)(OC)[C@@H](O)[C@H](C)O2)[C@H](C)[C@@H](O[C@@H]2O[C@H](C)C[C@H](N(C)C)[C@H]2O)[C@](C)(O)C[C@@H](C)/C(=N\OCOCCOC)[C@H](C)[C@@H](O)[C@]1(C)O` the same measures were 77.6% and -1.6%.
For `CCOC(=O)[C@@H](N)Cc1ccc(O)c(O)c1` [etilevodopa], in that order: 107% and -2.81%.
For `CC[C@]1(O)C[C@@H]2CN(CCc3c([nH]c4ccccc34)[C@@](C(=O)OC)(c3cc4c(cc3OC)N(C)[C@H]3[C@@](O)(C(=O)OC)[C@H](OC(C)=O)[C@]5(CC)C=CCN6CC[C@]43[C@@H]65)C2)C1` the same measures were 20.8% and -0.238%.
In test [1], `CNS(=O)(=O)Cc1ccc2[nH]cc(CCN(C)C)c2c1` came in with a mCherry of 116%. In addition, in test [2], the percent effect is -3.11%.
For `CCCCC(CC)COC(=O)c1ccccc1O` (stereo unspecified) the same measures were 106% and -5.27%.
For `CCC=CCC=CCC=CCC=CCC=CCC=CCCC(=O)O` the same measures were 59.7% and -6.58%.
For `CCN[C@@H]1C[C@H](N)[C@@H](O[C@H]2OC(CN)=CC[C@H]2N)[C@H](O)[C@H]1O[C@H]1OC[C@](C)(O)[C@H](NC)[C@H]1O`, in that order: 103% and -0.72%.
Consider `CC(=O)N1CCN(c2ccc(OCC3COC(Cn4ccnc4)(c4ccc(Cl)cc4Cl)O3)cc2)CC1` (stereo unspecified) [ketoconazole], for which the mCherry in test [1] was 93.9% and 74.2% and 92%. The percent effect in test [2] was -3.68% and -4.39% and -3.31%.
Compound `CCCCCCOC(=O)NC(=N)c1ccc(NCc2nc3cc(C(=O)N(CCC(=O)OCC)c4ccccn4)ccc3n2C)cc1` [dabigatran etexilate] gave a mCherry in test [1] of 96.8%. Besides, the percent effect in test [2] was -4.3%.
For `CCCCCCn1c(=O)c2c(ncn2C)n(C)c1=O` [pentifylline], in that order: 108% and 0.325%.
Take `CC(NCCc1ccc(O)cc1)C(O)c1ccc(O)cc1` (stereo unspecified) [ritodrine]: in test [1], the mCherry was 117% and 97.9%. In addition, the percent effect in test [2] is -1.18% and -5.33%.
In test [1], `CC[C@]1(O)C[C@H]2CN(CCc3c([nH]c4ccccc34)[C@@](C(=O)OC)(c3cc4c(cc3OC)N(C=O)[C@H]3[C@@](O)(C(=O)OC)[C@H](OC(C)=O)[C@]5(CC)C=CCN6CC[C@]43[C@@H]65)C2)C1` [Vincristine] had a mCherry of 19.6%. Further, the percent effect in test [2] was -10.4%.
The compound `C[C@H]1C[C@H]2[C@@H]3C[C@H](F)C4=CC(=O)C=C[C@]4(C)[C@@]3(F)[C@@H](O)C[C@]2(C)[C@@]1(O)C(=O)CO` [diflorasone] gave a mCherry in test [1] of 99.9%. Also, the percent effect in test [2] is -0.736%.
For `COc1ccc2c(O[C@@H]3C[C@H]4C(=O)N[C@]5(C(=O)NS(=O)(=O)C6CC6)C[C@H]5/C=C\CCCCN(C)C(=O)[C@@H]4C3)cc(-c3nc(C(C)C)cs3)nc2c1C` [Simeprevir], in that order: 76.3% and 1.47%.
With `COc1ccc(O)cc1` [mequinol], the mCherry in test [1] was found to be 119%. Besides, in test [2], the percent effect is -4.13%.
As to `CC(=O)OCC(CCn1cnc2cnc(N)nc21)COC(C)=O` [famciclovir], the mCherry in test [1] was 90.6% and 66.4%. Further, the percent effect in test [2] is -3.81% and -3.19%.
For `O=C(Nc1ccc(C(=O)O)c(O)c1)c1ccccc1`, in test [1], the mCherry amounted to 84.8%. In test [2], the percent effect amounted to 0.162%.
For `CN(C)CCC(c1ccccc1)c1ccccn1` (stereo unspecified) [pheniramine] the same measures were 110% and -1.49%.
As to `CN(C)CCOC(c1ccccc1)c1ccccc1.Cn1c(=O)c2[nH]c(Cl)nc2n(C)c1=O` [dimenhydrinate], the mCherry in test [1] stood at 107%. Further, the percent effect in test [2] is -5.81%.
